# Measured values from patent publication US11141413B2, “Method of treating renal cell carcinoma using N-(4-(6,7-dimethoxyquinolin-4-yloxy)phenyl)-N′-(4-fluorophenyl)cyclopropane-1,1-dicarboxamide, (2S)-hydroxybutanedioate” (Exelixis, Inc., priority 2016, dated 2021).
# Tested on: patients with advanced renal cell carcinoma
# Assay: METEOR (Study 1) safety: adverse reactions, laboratory abnormalities, dose modifications
SMILES,Median average daily dose (Asia Pacific) [mg],Median duration of exposure (Asia Pacific) [wks],Median average daily dose (Europe) [mg],Median duration of exposure (Europe) [wks],Median average daily dose (North America) [mg],Median duration of exposure (North America) [wks],Median duration of treatment (Study 1 label data) [months],"Median duration of exposure (cutoff Dec. 31, 2015) [months]",Median duration of exposure (patients enrolled in Canada) [mo]
CO[C@H]1C[C@@H]2CC[C@@H](C)[C@@](O)(O2)C(=O)C(=O)N2CCCC[C@H]2C(=O)O[C@H]([C@H](C)C[C@@H]2CC[C@@H](OCCO)[C@H](OC)C2)CC(=O)[C@H](C)/C=C(\C)[C@@H](O)[C@@H](OC)C(=O)[C@H](C)C[C@H](C)/C=C/C=C/C=C/1C [everolimus],9.4,24,9.1,21,8.7,16,4.4,4.2,3.7
COc1cc2nccc(Oc3ccc(NC(=O)C4(C(=O)Nc5ccc(F)cc5)CC4)cc3)c2cc1OC [cabozantinib],41.0,56,43.6,33,43.3,39,,8.3,9.2
